Patent publication US20260132200A1
Results are given in words; binding and its absence hold for the method and conditions named. Some results given as binding are weak or reduced against the parent protein; the word gives no strength.

Sequences of proteins named here, by UniProt entry; tags and fusion partners are left off. A change or cut given only in a name is not applied to a line headed by its entry.
UniProt P07766: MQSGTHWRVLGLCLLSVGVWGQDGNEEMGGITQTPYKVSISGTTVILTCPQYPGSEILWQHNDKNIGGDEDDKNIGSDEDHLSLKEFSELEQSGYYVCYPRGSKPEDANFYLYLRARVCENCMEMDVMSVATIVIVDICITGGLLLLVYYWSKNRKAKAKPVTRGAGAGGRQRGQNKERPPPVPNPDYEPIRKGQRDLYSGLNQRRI

Target: human CD3 on Jurkat cells (CD3+, CD20- human T-cell line) (human) (UniProt P07766)
Experiment: FACS on Jurkat cells (CD3+, CD20-)

binding: binds
B1: BS3/20-002 (bispecific antibody, V domains shown)
VH 1: EVQLVESGGGLVQPGRSLRLSCVASGFTFNDYAMHWVRQAPGKGLEWVSVISWNSDSIGYADSVKGRFTISRDNAKNSLYLQMHSLRAEDTALYYCAKDNHYGSGSYYYYQYGMDVWGQGTTVTVSS
VH 2: EVQLVESGGGLVQPGGSLRLSCAATGFTFDDFTMHWVRQAPGKGLEWVSGISWNSGSIGYVDSVKGRFTISRDNAKNSLYLQMNSLRAEDTALYYCAKDNSGYGYYYYGMDVWGQGTTVTVSS
VL: EIVMTQSPATLSVSPGERATLSCRASHSVSRNSAWYQQKPGQAPRLLIYGASTRATGIPARFSGSGSGTEFTLTISSLQSEDFAIYYCQQYNNWPLTFGGGTKVEIK
